Test results from patent US20060084599A1, “Compositions, methods and kits relating to notch signaling” (Maine Medical Center, priority 2003, published 2006).
Some entries share one result that the patent states for a list of compounds.

Test system: cortical neurospheres
Assay: Cortical neurosphere model, secondary sphere formation
Type: cell-based, murine
Source text: Murine E13 cerebral cortices were dissected, the ventricular zone isolated, dissected free of the meninges and utilized as a source for the generation of clonal neurspheres. The resulting cells were dispersed by aspiration to produce single cells and cells expressing the […], CD24 as previously described (Rietze et al., 2001), and peanut agglutinin antigen (PNA) were sorted using a FASC Vantage SE cell sorter at a low gate (CD24^low/PNA^low), and the cells were subjected to immunofluoresence microscopy using an antibody against CD24 (Rietze et al., 2001, Nature 412:736-739). Double-positive cells (2×10^3 /ml) were plated in suspension as described (Reynolds et al., 1992, J. Neurosci. 12:4565-4574; Reynolds et al., 1992, Science 255:1707-1710) and secondary neurospheres generated 14 days later by isolating single spheres followed by trypsin digestion of each sphere. Cells obtained from the sphere were placed in suspension culture at a clonal cell seed density and colonies selected.
The E14 prefrontal ventricular zone was dissected and plated at a clonal neurosphere-forming density in the presence of either sJ1, sDl1, thrombin, TRAP or no supplementation. After 2 weeks, the clones were dissociated to single cells and secondary spheres were generated using standard media with no supplementation (Reynolds et al., 1992, J. Neurosci. 12:4565-4574). […]

sJ1: Soluble Jagged1, amino acid residues about 1 to 1067 (SEQ ID NO:3) of full-length human Jagged1
total cell numbers of primary spheres over the control: less than 2 fold | change in secondary stem cell generation (versus control): exceeded 5 fold
